Data as given in PubChem BioAssay AID1259254 (NCATS, 2017).
Test: 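Genome-wide screen for genes that prevent DNA re-replication in cancer cells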 (primary screen). System: human HCT116 colorectal cancer cells. Reagent: single siRNA against human genes. Time to read-out: 3 days. Measured: 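Nuclei stained with Hoechst and imaged; cell-cycle phase assigned by DNA content; G2 share scaled per plate, non-targeting siRNA 0%, GMNN siRNA 100%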. Direction: G2 robust z-score and G2 cells, % of GMNN control: higher = more G2 cells, more excess DNA replication; raw share of cells in G2: higher = larger share of cells with G2 DNA content. Active means: 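Active siRNAs have a G2 robust z of 5 or more median absolute deviations over the median, which in these data means about 38% or higher of GMNN control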.
Here is one part, drawn at random, of about 59,000 deposited reagents. About 1,550 of all reagents (2.6%) count as active. 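G2 share is only a proxy for re-replication; each gene was hit by three separate siRNAs, and active genes were retested.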 Raw values are not corrected between plates. The numbers tell different reagents against one gene apart. Not stated in the record: the amount of reagent.

| Target gene | reagent | G2 robust z-score | G2 cells, % of GMNN control | raw share of cells in G2 (%) | activity call |
| --- | --- | --- | --- | --- | --- |
| FAM131A (GeneID 131408) | 1 | -0.463 | -0.29 | 4.07 | inactive |
| FAM131A (GeneID 131408) | 2 | -0.587 | -1.16 | 2.73 | inactive |
| FAM131A (GeneID 131408) | 3 | -0.0271 | 2.78 | 3.59 | inactive |
| MANBAL (GeneID 63905) | 1 | 0.908 | 9.36 | 8.66 | inactive |
| MANBAL (GeneID 63905) | 2 | 1.21 | 11.4 | 9.74 | inactive |
| MANBAL (GeneID 63905) | 3 | 1.27 | 11.9 | 5.85 | inactive |
| TENT5D (GeneID 169966) | 1 | -0.31 | 0.785 | 3.88 | inactive |
| TENT5D (GeneID 169966) | 2 | -0.908 | -3.42 | 1.81 | inactive |
| TENT5D (GeneID 169966) | 3 | -0.852 | -3.03 | 1.8 | inactive |
| BHLHE40 (GeneID 8553) | 1 | 1.96 | 16.8 | 10.7 | inactive |
| BHLHE40 (GeneID 8553) | 2 | 3.56 | 28 | 15.1 | inactive |
| BHLHE40 (GeneID 8553) | 3 | -0.107 | 2.21 | 5.54 | inactive |
| PCDH9 (GeneID 5101) | 1 | -0.0215 | 2.82 | 6.27 | inactive |
| PCDH9 (GeneID 5101) | 2 | -1.19 | -5.43 | 2.55 | inactive |
| PCDH9 (GeneID 5101) | 3 | -0.108 | 2.21 | 3.95 | inactive |
| ASXL2 (GeneID 55252) | 1 | -0.197 | 1.58 | 5.13 | inactive |
| ASXL2 (GeneID 55252) | 2 | 0.0966 | 3.65 | 5.65 | inactive |
| ASXL2 (GeneID 55252) | 3 | 1.19 | 11.3 | 6.76 | inactive |
| KRT126P (GeneID 643865) | 1 | -0.169 | 1.78 | 4.32 | inactive |
| KRT126P (GeneID 643865) | 2 | 0.118 | 3.8 | 4.64 | inactive |
| KRT126P (GeneID 643865) | 3 | 0.151 | 4.03 | 4.32 | inactive |
| HBG1 (GeneID 3047) | 1 | -0.407 | 0.107 | 4.24 | inactive |
| HBG1 (GeneID 3047) | 2 | 0.841 | 8.88 | 9.07 | inactive |
| HBG1 (GeneID 3047) | 3 | 5.11 | 38.9 | 19.2 | active |

The list goes on, starting with the last 7 of the part before.
| Target gene | reagent | G2 robust z-score | G2 cells, % of GMNN control | raw share of cells in G2 (%) | activity call |
| --- | --- | --- | --- | --- | --- |
| ASXL2 (GeneID 55252) | 3 | 1.19 | 11.3 | 6.76 | inactive |
| KRT126P (GeneID 643865) | 1 | -0.169 | 1.78 | 4.32 | inactive |
| KRT126P (GeneID 643865) | 2 | 0.118 | 3.8 | 4.64 | inactive |
| KRT126P (GeneID 643865) | 3 | 0.151 | 4.03 | 4.32 | inactive |
| HBG1 (GeneID 3047) | 1 | -0.407 | 0.107 | 4.24 | inactive |
| HBG1 (GeneID 3047) | 2 | 0.841 | 8.88 | 9.07 | inactive |
| HBG1 (GeneID 3047) | 3 | 5.11 | 38.9 | 19.2 | active |
| FAM78A (GeneID 286336) | 1 | 1.35 | 12.5 | 8.19 | inactive |
| FAM78A (GeneID 286336) | 2 | 1.35 | 12.5 | 7.87 | inactive |
| FAM78A (GeneID 286336) | 3 | -0.616 | -1.37 | 2.85 | inactive |
| ZNF227 (GeneID 7770) | 1 | -0.784 | -2.55 | 2.68 | inactive |
| ZNF227 (GeneID 7770) | 2 | -0.803 | -2.68 | 4.79 | inactive |
| ZNF227 (GeneID 7770) | 3 | -0.545 | -0.868 | 2.98 | inactive |
| TMEM219 (GeneID 124446) | 1 | -0.999 | -4.06 | 0.632 | inactive |
| TMEM219 (GeneID 124446) | 2 | -0.32 | 0.717 | 4.38 | inactive |
| TMEM219 (GeneID 124446) | 3 | 0.454 | 6.16 | 5.17 | inactive |
| MAD1L1 (GeneID 8379) | 1 | -1.26 | -5.9 | 2.51 | inactive |
| MAD1L1 (GeneID 8379) | 2 | 0.509 | 6.55 | 6.49 | inactive |
| MAD1L1 (GeneID 8379) | 3 | 2.8 | 22.7 | 11.4 | inactive |
| PPP1R14C (GeneID 81706) | 1 | 1.3 | 12.1 | 8.73 | inactive |
| PPP1R14C (GeneID 81706) | 2 | -1.11 | -4.87 | 2.83 | inactive |
| PPP1R14C (GeneID 81706) | 3 | 0.664 | 7.64 | 5.8 | inactive |
| MIR3976HG (GeneID 645355) | 1 | 0.583 | 7.07 | 6.44 | inactive |
| MIR3976HG (GeneID 645355) | 2 | 13.7 | 99.1 | 40 | active |
| MIR3976HG (GeneID 645355) | 3 | 1.54 | 13.8 | 7.44 | inactive |
| OR8K3 (GeneID 219473) | 1 | -0.213 | 1.47 | 4.11 | inactive |
| OR8K3 (GeneID 219473) | 2 | 1.04 | 10.3 | 6.65 | inactive |
| OR8K3 (GeneID 219473) | 3 | 3.85 | 30 | 12.8 | inactive |
| GGH (GeneID 8836) | 1 | -0.632 | -1.48 | 5.04 | inactive |
| GGH (GeneID 8836) | 2 | 2.49 | 20.5 | 12.2 | inactive |
| GGH (GeneID 8836) | 3 | 1.56 | 13.9 | 9.11 | inactive |
| FLJ38576 (GeneID 651430) | 1 | 1.44 | 13.1 | 6.66 | inactive |
| FLJ38576 (GeneID 651430) | 2 | 1.21 | 11.5 | 8.33 | inactive |
| FLJ38576 (GeneID 651430) | 3 | 0.831 | 8.82 | 6.42 | inactive |
| ZNF546 (GeneID 339327) | 1 | 2.97 | 23.9 | 11.3 | inactive |
| ZNF546 (GeneID 339327) | 2 | -0.961 | -3.8 | 1.85 | inactive |
| ZNF546 (GeneID 339327) | 3 | -0.442 | -0.143 | 3.47 | inactive |
| RASAL2 (GeneID 9462) | 1 | 1.75 | 15.3 | 11 | inactive |
| RASAL2 (GeneID 9462) | 2 | 1.39 | 12.8 | 9.93 | inactive |
| RASAL2 (GeneID 9462) | 3 | 2.3 | 19.2 | 9.74 | inactive |
| CHKA (GeneID 1119) | 1 | 0.908 | 9.36 | 8.56 | inactive |
| CHKA (GeneID 1119) | 2 | -0.0178 | 2.84 | 6.55 | inactive |
| CHKA (GeneID 1119) | 3 | -0.669 | -1.74 | 3.41 | inactive |
| TIMM9 (GeneID 26520) | 1 | -1.22 | -5.64 | 2.14 | inactive |
| TIMM9 (GeneID 26520) | 2 | -0.256 | 1.17 | 4.57 | inactive |
| TIMM9 (GeneID 26520) | 3 | -1.62 | -8.44 | 2.33 | inactive |
| KCNH6 (GeneID 81033) | 1 | 1.13 | 10.9 | 9.26 | inactive |
| KCNH6 (GeneID 81033) | 2 | 3.33 | 26.4 | 13.7 | inactive |
| KCNH6 (GeneID 81033) | 3 | -0.22 | 1.42 | 4.93 | inactive |
| SLC11A1 (GeneID 6556) | 1 | -1.11 | -4.85 | 4.05 | inactive |
| SLC11A1 (GeneID 6556) | 2 | -0.66 | -1.68 | 3.97 | inactive |
| SLC11A1 (GeneID 6556) | 3 | 1.8 | 15.7 | 9.14 | inactive |
